pIC50: −log10 of the molar value.
Target: Sodium channel protein type 9 subunit alpha (Homo sapiens, UniProt Q15858)
Experiment: cell-based

Chains of the proteins cited; added tags and fusions are not shown.
UniProt Q15858, whole entry: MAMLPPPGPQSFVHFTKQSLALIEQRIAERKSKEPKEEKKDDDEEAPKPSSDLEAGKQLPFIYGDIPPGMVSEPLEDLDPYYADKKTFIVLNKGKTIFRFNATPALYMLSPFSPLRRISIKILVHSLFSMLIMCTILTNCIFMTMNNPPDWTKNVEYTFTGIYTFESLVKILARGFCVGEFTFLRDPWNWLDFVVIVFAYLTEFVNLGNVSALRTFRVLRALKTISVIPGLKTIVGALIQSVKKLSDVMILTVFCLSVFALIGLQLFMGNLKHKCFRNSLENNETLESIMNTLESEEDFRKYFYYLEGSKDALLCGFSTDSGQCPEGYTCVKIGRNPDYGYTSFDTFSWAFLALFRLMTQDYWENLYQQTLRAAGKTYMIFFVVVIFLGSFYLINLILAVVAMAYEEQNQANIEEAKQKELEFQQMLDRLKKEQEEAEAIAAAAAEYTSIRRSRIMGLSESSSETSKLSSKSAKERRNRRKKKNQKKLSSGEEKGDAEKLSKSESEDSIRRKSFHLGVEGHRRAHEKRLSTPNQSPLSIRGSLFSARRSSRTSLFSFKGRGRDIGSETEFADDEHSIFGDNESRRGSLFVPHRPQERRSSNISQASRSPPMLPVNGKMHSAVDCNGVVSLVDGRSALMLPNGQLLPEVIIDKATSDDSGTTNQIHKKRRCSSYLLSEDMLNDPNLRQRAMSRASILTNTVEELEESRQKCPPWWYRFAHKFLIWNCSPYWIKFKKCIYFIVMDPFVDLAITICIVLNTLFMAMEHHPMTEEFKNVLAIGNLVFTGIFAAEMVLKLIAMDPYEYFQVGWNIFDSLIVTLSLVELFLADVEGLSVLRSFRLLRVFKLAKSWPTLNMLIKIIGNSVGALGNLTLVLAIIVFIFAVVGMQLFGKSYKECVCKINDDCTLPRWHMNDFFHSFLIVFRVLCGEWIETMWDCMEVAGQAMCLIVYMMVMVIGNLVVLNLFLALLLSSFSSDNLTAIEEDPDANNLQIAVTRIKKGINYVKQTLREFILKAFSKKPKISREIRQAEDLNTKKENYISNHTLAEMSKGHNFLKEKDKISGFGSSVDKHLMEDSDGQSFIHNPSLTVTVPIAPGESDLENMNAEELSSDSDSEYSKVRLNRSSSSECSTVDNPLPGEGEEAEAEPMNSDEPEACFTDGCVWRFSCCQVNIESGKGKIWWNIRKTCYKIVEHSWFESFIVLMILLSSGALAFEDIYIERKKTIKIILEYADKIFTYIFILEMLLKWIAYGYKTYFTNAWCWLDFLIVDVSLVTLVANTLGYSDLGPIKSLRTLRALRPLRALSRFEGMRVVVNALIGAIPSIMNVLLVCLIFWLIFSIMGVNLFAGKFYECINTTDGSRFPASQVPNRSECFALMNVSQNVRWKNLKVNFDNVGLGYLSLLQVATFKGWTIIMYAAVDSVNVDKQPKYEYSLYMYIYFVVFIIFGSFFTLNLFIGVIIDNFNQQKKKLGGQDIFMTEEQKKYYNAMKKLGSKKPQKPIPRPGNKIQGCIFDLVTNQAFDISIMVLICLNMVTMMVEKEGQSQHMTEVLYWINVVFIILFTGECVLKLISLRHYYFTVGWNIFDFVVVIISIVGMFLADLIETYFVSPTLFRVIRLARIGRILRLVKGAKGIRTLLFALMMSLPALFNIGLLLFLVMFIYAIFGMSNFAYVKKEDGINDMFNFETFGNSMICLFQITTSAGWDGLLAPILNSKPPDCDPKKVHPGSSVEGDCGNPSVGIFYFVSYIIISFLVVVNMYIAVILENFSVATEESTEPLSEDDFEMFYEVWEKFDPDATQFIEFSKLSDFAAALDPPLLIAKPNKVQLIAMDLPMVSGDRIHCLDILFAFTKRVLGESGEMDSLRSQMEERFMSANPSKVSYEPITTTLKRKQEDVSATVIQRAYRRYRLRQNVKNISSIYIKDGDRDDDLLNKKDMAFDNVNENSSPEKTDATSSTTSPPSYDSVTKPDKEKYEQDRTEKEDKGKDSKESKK

## O=S(=O)(Nc1ncns1)c1cc(F)c(Oc2ccc(Cl)cc2-c2ccnn2C2CNC2)cc1F
  pIC50: 8.89

— ChEMBL document CHEMBL2321810, “QSAR investigation of NaV1.7 active compounds using the SVM/Signature approach and the Bioclipse Modeling platform” (Bioorg Med Chem Lett, 2013)
